Literature values in patent US8748116B2, “1L1RL-1 as a cardiovascular disease marker and therapeutic target” (The Brigham and Women s Hospital, Inc., priority 2002, dated 2014).
At least one structure is not confirmed: it was looked up by name or label, or the drawing left a doubt.

Test system: patients with heart failure due to coronary artery disease
Conditions: cited from earlier work

SMILES: CCOC(=O)C1=C(COCCN)NC(C)=C(C(=O)OC)C1c1ccccc1Cl (stereo not shown) [Amlodipine, amlodipine]
- benefit in severe heart failure (result of the trial): null for a benefit
